Test results reported in PMC7909837, “Function and Regulation of Chloroplast Peroxiredoxin IIE” (Antioxidants, 2021).

By UniProt entry, the sequences of proteins in these tests, tags left out. Residues count along the entry.
UniProt Q9SKP6, residues 61-315: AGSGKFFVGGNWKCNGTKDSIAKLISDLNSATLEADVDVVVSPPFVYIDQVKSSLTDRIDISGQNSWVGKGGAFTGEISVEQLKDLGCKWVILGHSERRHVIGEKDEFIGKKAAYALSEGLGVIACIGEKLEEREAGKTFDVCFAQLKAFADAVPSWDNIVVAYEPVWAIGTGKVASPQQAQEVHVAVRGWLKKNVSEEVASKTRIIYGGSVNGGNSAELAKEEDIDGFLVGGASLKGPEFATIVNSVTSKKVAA
UniProt P37702, residues 20-541: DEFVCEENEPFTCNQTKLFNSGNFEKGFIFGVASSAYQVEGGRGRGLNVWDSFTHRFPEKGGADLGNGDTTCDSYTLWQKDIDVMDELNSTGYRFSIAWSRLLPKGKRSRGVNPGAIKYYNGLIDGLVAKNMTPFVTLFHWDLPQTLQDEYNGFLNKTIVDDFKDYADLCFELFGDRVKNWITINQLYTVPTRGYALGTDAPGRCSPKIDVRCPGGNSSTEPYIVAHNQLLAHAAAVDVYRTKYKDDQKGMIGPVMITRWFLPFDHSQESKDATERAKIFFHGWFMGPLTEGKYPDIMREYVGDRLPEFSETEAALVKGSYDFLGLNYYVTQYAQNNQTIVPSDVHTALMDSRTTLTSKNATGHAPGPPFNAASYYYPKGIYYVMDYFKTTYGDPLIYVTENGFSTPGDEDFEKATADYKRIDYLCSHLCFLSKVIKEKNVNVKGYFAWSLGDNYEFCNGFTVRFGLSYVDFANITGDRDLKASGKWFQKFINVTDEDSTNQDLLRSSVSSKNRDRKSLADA
UniProt P34791, residues 80-260: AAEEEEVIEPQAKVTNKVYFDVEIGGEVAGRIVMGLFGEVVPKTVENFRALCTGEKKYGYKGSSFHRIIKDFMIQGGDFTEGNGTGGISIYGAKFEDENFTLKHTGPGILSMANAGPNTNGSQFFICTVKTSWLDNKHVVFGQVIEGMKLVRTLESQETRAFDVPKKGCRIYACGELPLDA

T1: Peroxiredoxin IIE (PRX-IIE), wild type, His6-tagged recombinant (A. thaliana) (UniProt Q949U7)
T1 sequence: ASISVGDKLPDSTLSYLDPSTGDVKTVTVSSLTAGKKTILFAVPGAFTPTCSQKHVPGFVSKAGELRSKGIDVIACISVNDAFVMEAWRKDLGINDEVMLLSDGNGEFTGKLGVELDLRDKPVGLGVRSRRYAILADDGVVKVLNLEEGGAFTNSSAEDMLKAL

B1: Leucine aminopeptidase 1 (enzyme, UniProt P30184 1-520)
chain: MAHTLGLTQPNSTEPHKISFTAKEIDVIEWKGDILVVGVTEKDLAKDGNSKFENPILSKVDAHLSGLLAQVSSEEDFTGKPGQSTVLRLPGLGSKRIALIGLGQSVSSPVAFHSLGEAVATVSKASQSTSAAIVLASSVSDESKLSSVSALASGIVLGLFEDGRYKSESKKPSLKAVDIIGFGTGAEVEKKLKYAEDVSYGVIFGRELINSPANVLTPAVLAEEAAKVASTYSDVFTANILNEEQCKELKMGSYLAVAAASANPPHFIHLVYKPPNGSVKTKLALVGKGLTFDSGGYNIKTGPGCSIELMKFDMGGSAAVLGAAKAIGEIKPPGVEVHFIVAACENMISGTGMRPGDVITASNGKTIEVNNTDAEGRLTLADALVYACNQGVDKIVDLATLTGACVIALGTSMAGIYTPSDELAKEVIAASERSGEKLWRMPLEESYWEMMKSGVADMVNTGGRAGGSITAALFLKQFVSEKVQWMHIDMAGPVWNEKKKSGTGFGVATLVEWVQKNSSS
B2: Plastidial pyruvate kinase 2 (enzyme, UniProt Q9FLW9 64-579)
chain: SARVETEVIPVSPEDVPNREEQLERLLEMQQFGDTSVGMWSKPTVRRKTKIVCTVGPSTNTREMIWKLAEAGMNVARMNMSHGDHASHKKVIDLVKEYNAQTKDNTIAIMLDTKGPEVRSGDLPQPIMLDPGQEFTFTIERGVSTPSCVSVNYDDFVNDVEAGDMLLVDGGMMSFMVKSKTKDSVKCEVVDGGELKSRRHLNVRGKSATLPSITEKDWEDIKFGVENKVDFYAVSFVKDAQVVHELKKYLQNSGADIHVIVKIESADSIPNLHSIITASDGAMVARGDLGAELPIEEVPILQEEIINLCRSMGKAVIVATNMLESMIVHPTPTRAEVSDIAIAVREGADAVMLSGETAHGKFPLKAAGVMHTVALRTEATITSGEMPPNLGQAFKNHMSEMFAYHATMMSNTLGTSTVVFTRTGFMAILLSHYRPSGTIYAFTNEKKIQQRLALYQGVCPIYMEFTDDAEETFANALATLLKQGMVKKGEEIAIVQSGTQPIWRSQSTHNIQVRKV
B3: β-carbonic anhydrase 2 (enzyme, UniProt P42737 72-331)
chain: RMGNESYEDAIEALKKLLIEKDDLKDVAAAKVKKITAELQAASSSDSKSFDPVERIKEGFVTFKKEKYETNPALYGELAKGQSPKYMVFACSDSRVCPSHVLDFHPGDAFVVRNIANMVPPFDKVKYAGVGAAIEYAVLHLKVENIVVIGHSACGGIKGLMSFPLDGNNSTDFIEDWVKICLPAKSKVLAESESSAFEDQCGRCEREAVNVSLANLLTYPFVREGVVKGTLALKGGYYDFVNGSFELWELQFGISPVHSI
B4: Plastidial pyruvate kinase 3 (enzyme, UniProt Q93Z53 56-571)
chain: SIKISEDSRKPKAYAENGAFDVGVLDSSSYRLADSRTSSNDSRRKTKIVCTIGPSSSSREMIWKLAEAGMNVARLNMSHGDHASHQITIDLVKEYNSLFVDKAIAIMLDTKGPEVRSGDVPQPIFLEEGQEFNFTIKRGVSLKDTVSVNYDDFVNDVEVGDILLVDGGMMSLAVKSKTSDLVKCVVIDGGELQSRRHLNVRGKSATLPSITDKDWEDIKFGVDNQVDFYAVSFVKDAKVVHELKNYLKTCSADISVIVKIESADSIKNLPSIISACDGAMVARGDLGAELPIEEVPLLQEEIIRRCRSIHKPVIVATNMLESMINHPTPTRAEVSDIAIAVREGADAIMLSGETAHGKFPLKAVNVMHTVALRTEASLPVRTSASRTTAYKGHMGQMFAFHASIMANTLSSPLIVFTRTGSMAVLLSHYRPSATIFAFTNQRRIMQRLALYQGVMPIYMEFSDDAEDTYARSLKLLQDENMLKEGQHVTLVQSGSQPIWREESTHLIQVRKIKIGG
B5: Fructose-bisphosphate aldolase 5 (enzyme, UniProt O65581 1-358)
chain: MSAFVGKYADELIKTAKYIATPGKGILAADESTGTIGKRFASINVENIESNRQALRELLFTSPGTFPCLSGVILFEETLYQKTTDGKPFVELLMENGVIPGIKVDKGVVDLAGTNGETTTQGLDSLGARCQEYYKAGARFAKWRAVLKIGATEPSELSIQENAKGLARYAIICQENGLVPIVEPEVLTDGSHDIKKCAAVTETVLAAVYKALNDHHVLLEGTLLKPNMVTPGSDSPKVAPEVIAEYTVTALRRTVPPAVPGIVFLSGGQSEEEATLNLNAMNKLDVLKPWTLTFSFGRALQQSTLKAWAGKTENVAKAQATFLTRCKGNSDATLGKYTGGASGDSAASESLYEEGYKY
B6: Phosphoglycerate mutase-like protein 1 (protein, UniProt Q9FGF0 1-282)
chain: METGAGIGLYPLHRCKTIYLVRHAQGIHNVDGEKNYKAYMSHDYFDAELTQLGWKQVDSLRKHVHSSGLHKKIELVISSPLMRTLQTAVGVFGGEGYTDMSDVLPLMVANAGNSSRAAISSLNCPPVITEESCREHLGVHPCDQRRSISDYQFLFPAVDFSLIESEEDKLWKADVRETIEELAARGKKFLNWLWTRKEKEIAIVTHSGFLFHTLNALQNECHPDVKKEICGHFANCELRSMVIVDRSMLGSDSSVTDYPGKIPKGIDLPSDAVVDDNNIKVE
B7: Magnesium-chelatase subunit ChII-2 (enzyme, UniProt Q5XF33 56-418)
chain: VMNVATEINSVEQAKKIDSKESARPVYPFAAIVGQDEMKLCLLLNVIDPKIGGVMIMGDRGTGKSTTVRSLVDLLPEITVVSGDPYNSDPRDPECMGKEVREKVQKGEELSVIETKINMVDLPLGATEDRVCGTIDIEKALTEGVKAFEPGLLAKANRGILYVDEVNLLDDHLVDVLLDSAASGWNTVEREGISISHPARFILIGSGNPEEGELRPQLLDRFGMHAQVGTVRDAELRVKIVEERARFDSNPKEFRETYQEEQLKLQEQITTARSNLSAVQIDQDLKVKISKVCAELDVDGLRGDMVINRAARALAALQGRDQVTAEDVGIVIPNCLRHRLRKDPLESMDSGILVTEKFYEVFT
B8: 4-Hydroxy-tetrahydrodipicolinate synthase 1 (enzyme, UniProt Q9LZX6 40-365)
chain: AVVPNFHLPMRSLEDKNRTNTDDIRSLRVITAIKTPYLPDGRFDLQAYDDLVNTQIENGAEGVIVGGTTGEGQLMSWDEHIMLIGHTVNCFGGRIKVIGNTGSNSTREAIHATEQGFAMGMHGALHINPYYGKTSIEGMNAHFQTVLHMGPTIIYNVPGRTCQDIPPQVIFKLSQNPNMAGVKECVGNNRVEEYTEKGIVVWSGNDDQCHDSRWDHGATGVISVTSNLVPGLMRKLMFEGRNSALNAKLLPLMDWLFQEPNPIGVNTALAQLGVARPVFRLPYVPLPLSKRIEFVKLVKEIGREHFVGDRDVQVLDDDDFILIGRY
B9: Fructose-bisphosphate aldolase 4 (enzyme, UniProt F4KGQ0 1-393)
chain: MSCFKSKFAGKSYFRRTFHSSIIQFHPQLSILIWHRRYSIIRTYELIANAAYIGTPGKGILAADESTGTIGKRFVSINVENVESNRRALRELLFTTPGALQYISGIILFEETLYQKTASGKLFVDVMKEAGVLPGIKVDKGTVELAGTNGETTTTGLDGLGDRCKKYYEAGARFAKWRAVLKIGNNEPSELAIHENAYGLARYAVICQENGLVPIVEPEILVDGSHDIEKCAYVTERVLAACYKALSDHHVILEGTLLKPNMVTPGSDSGSKVKPEVIAKHTVRALQRTVPAAVPAVVFLSGGQSEEEATVNLNAINQLKGKKPWSLTFSYGRALQQSTLKAWGGKEENVDKAQKAFLARAKANSEATLGGYKGDAQLGEGASESLHVKDYKY
B10: 14-3-3 λ (protein, UniProt P48349 1-248)
chain: MAATLGRDQYVYMAKLAEQAERYEEMVQFMEQLVTGATPAEELTVEERNLLSVAYKNVIGSLRAAWRIVSSIEQKEESRKNDEHVSLVKDYRSKVESELSSVCSGILKLLDSHLIPSAGASESKVFYLKMKGDYHRYMAEFKSGDERKTAAEDTMLAYKAAQDIAAADMAPTHPIRLGLALNFSVFYYEILNSSDKACNMAKQAFEEAIAELDTLGEESYKDSTLIMQLLRDNLTLWTSDMQEQMDEA
B11: β-amylase 3 (enzyme, UniProt O23553 50-548)
chain: EMKFTHEKTFTPEGETLEKWEKLHVLSYPHSKNDASVPVFVMLPLDTVTMSGHLNKPRAMNASLMALKGAGVEGVMVDAWWGLVEKDGPMNYNWEGYAELIQMVQKHGLKLQVVMSFHQCGGNVGDSCSIPLPPWVLEEISKNPDLVYTDKSGRRNPEYISLGCDSVPVLRGRTPIQVYSDFMRSFRERFEGYIGGVIAEIQVGMGPCGELRYPSYPESNGTWRFPGIGEFQCYDKYMKSSLQAYAESIGKTNWGTSGPHDAGEYKNLPEDTEFFRRDGTWNSEYGKFFMEWYSGKLLEHGDQLLSSAKGIFQGSGAKLSGKVAGIHWHYNTRSHAAELTAGYYNTRNHDGYLPIAKMFNKHGVVLNFTCMEMKDGEQPEHANCSPEGLVKQVQNATRQAGTELAGENALERYDSSAFGQVVATNRSDSGNGLTAFTYLRMNKRLFEGQNWQQLVEFVKNMKEGGHGRRLSKEDTTGSDLYVGFVKGKIAENVEEAALV
B12: 14-3-3 υ, endogenous (protein, UniProt P42645 1-268)
chain: MSSDSSREENVYLAKLAEQAERYEEMVEFMEKVAKTVETEELTVEERNLLSVAYKNVIGARRASWRIISSIEQKEDSRGNSDHVSIIKDYRGKIETELSKICDGILNLLEAHLIPAASLAESKVFYLKMKGDYHRYLAEFKTGAERKEAAESTLVAYKSAQDIALADLAPTHPIRLGLALNFSVFYYEILNSSDRACSLAKQAFDEAISELDTLGEESYKDSTLIMQLLRDNLTLWTSDLNDEAGDDIKEAPKEVQKVDEQAQPPPSQ
B13: MLP-like protein 43 (protein, UniProt Q9SSK5 1-158)
chain: MAEASSLVGKLETEVEIKASAKKFHHMFTERPHHVSKATPDKIHGCELHEGDWGKVGSIVIWKYVHDGKLTVGKNKIEAVDPEKNLITFKVLEGDLMNEYKSFAFTLQVTPKQGESGSIAHWHLEYEKISEEVAHPETLLQFCVEISKEIDEHLLAEE
B14: 14-3-3 χ (protein, UniProt P42643 1-267)
chain: MATPGASSARDEFVYMAKLAEQAERYEEMVEFMEKVAKAVDKDELTVEERNLLSVAYKNVIGARRASWRIISSIEQKEESRGNDDHVSLIRDYRSKIETELSDICDGILKLLDTILVPAAASGDSKVFYLKMKGDYHRYLAEFKSGQERKDAAEHTLTAYKAAQDIANSELAPTHPIRLGLALNFSVFYYEILNSPDRACNLAKQAFDEAIAELDTLGEESYKDSTLIMQLLRDNLTLWTSDMQDDVADDIKEAAPAAAKPADEQQS

These molecules were tested against T1, Peroxiredoxin IIE (PRX-IIE), wild type, His6-tagged recombinant (A. thaliana) (assay: affinity purification with mass spectrometry; reduced His-tagged PRX-IIE or PRX-IIE C146S (3 mg) bound to 1 mL Ni-NTA resin; A. thaliana leaf protein extract (about 40 mg) applied, RT, 1.5 h; washes 50 mM Tris-HCl pH 8.0 and with 200 mM NaCl; first elution 50 mM DTT, second elution 50 mM DTT + 500 mM imidazole; nano-LC ESI-QTOF-MS; Ni-NTA without PRX-IIE as control; only the target purified).
With “Triosephosphate isomerase (from UniProt Q9SKP6 61-315) (enzyme)” the binding was “binds”. With “Myrosinase 1 (from UniProt P37702 20-541) (enzyme)” the binding was “binds”. For “Peptidyl-prolyl cis-trans isomerase CYP20-3 (from UniProt P34791 80-260) (enzyme)”, the binding was “binds”. With “Proline tRNA ligase (A. thaliana (endogenous in leaves)) (enzyme)” the binding was “binds”. B1 was tested, and the binding was “binds”. For B2, the binding was “binds”. With B3 the binding was “binds”. For B4, the binding was “binds”. For B5, the binding was “binds”. For B6, the binding was “binds”. For B7, the binding was “binds”. For B8, the binding was “binds”. B9 was tested, and the binding was “binds”. With B10 the binding was “binds”. For B11, the binding was “binds”. For B12, the binding was “binds”. For B13, the binding was “binds”. B14 was tested, and the binding was “binds”.

Results are given in words; binding and its absence hold for the method and conditions named. In cells and extracts the contact can be indirect. Here binding means that the protein was enriched with, or labelled near, the bait; the list need not be complete. Sequences can lack the tags named with a protein.
